Literature values in patent US20240108043A1, “NONNUTRITIVE SWEETENER COMPOSITIONS, METHODS OF MANUFACTURE AND USES THEREOF” (priority 2022, published 2024).

Conditions: peer-reviewed trials

Structure (SMILES)	Calorie content
O=C(CO)[C@H](O)[C@H](O)[C@H](O)CO [allulose, D-ribo-2-hexulose]	0.1 kcal/g
OC[C@@H](O)[C@@H](O)CO [erythritol, (2R,3S)-Butan-1,2,3,4-tetrol]	0.2 kcal/gram
